In paper PMC4267844, “The Lifestyle Switch Protein Bd0108 of Bdellovibrio bacteriovorus Is an Intrinsically Disordered Protein” (PLoS ONE, 2014):
These are yes or no findings as the source states them, for the method shown. A result given as binding can be weak or reduced; the word gives no strength.

Protein sequences, listed by entry. Tags and fused reporters are not part of them. Lines headed by an entry give the natural chain unless they say otherwise; changes in a name come on top.
UniProt Q6MRH5: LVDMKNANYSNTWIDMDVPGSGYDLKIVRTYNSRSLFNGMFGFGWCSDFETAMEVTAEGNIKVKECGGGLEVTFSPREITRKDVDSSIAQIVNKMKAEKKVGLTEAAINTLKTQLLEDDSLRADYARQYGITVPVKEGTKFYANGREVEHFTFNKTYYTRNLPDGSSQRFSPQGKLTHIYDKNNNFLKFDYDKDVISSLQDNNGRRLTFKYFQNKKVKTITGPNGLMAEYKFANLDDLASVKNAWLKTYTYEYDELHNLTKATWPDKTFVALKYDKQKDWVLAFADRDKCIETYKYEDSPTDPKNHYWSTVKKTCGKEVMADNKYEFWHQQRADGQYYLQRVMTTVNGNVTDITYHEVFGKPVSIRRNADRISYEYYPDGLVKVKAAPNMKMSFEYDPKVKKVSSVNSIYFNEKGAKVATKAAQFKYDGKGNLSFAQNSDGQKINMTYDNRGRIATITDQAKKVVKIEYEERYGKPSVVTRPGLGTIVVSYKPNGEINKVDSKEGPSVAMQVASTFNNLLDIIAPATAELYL

Target: T1, Bd0108 (Bdellovibrio bacteriovorus HD100) (UniProt Q6MRH6)
T1 sequence (chain, disulfide between C56 and C59; 15N-labelled in the NMR titration): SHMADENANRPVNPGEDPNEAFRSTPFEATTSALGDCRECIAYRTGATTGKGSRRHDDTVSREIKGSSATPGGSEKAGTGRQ
Assay: NMR titration; 1H-15N HSQC of 25 µM 15N Bd0108 with increasing Bd0109 up to 200 µM; 900 MHz; 20 mM Tris pH 7.0 100 mM NaCl 1 mM β-ME; both purified

For Bd0109 (from UniProt Q6MRH5), the binding was “binds weakly”.
